Counter-ions that a name gives are not always drawn. The list shows a part of the results. This data set is noisy: repeats of one test often differ as much as different tests do.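 In a drug-repurposing library screen, luminescence reads luciferase driven by eight TEAD-binding elements, stably integrated into human kidney-derived cells. Compounds scoring over five robust Z scores above the plate mean are called hits.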
Test system: HEK293A TEAD-LUC reporter
Assay: TEAD-luciferase reporter activity (YAP activation), robust Z score vs plate; higher = stronger YAP/TEAD activation
Conditions: 24 h

Row | Compound | TEAD-luciferase reporter activity (compound concentration: 200 nM) | TEAD-luciferase reporter activity (compound concentration: 2 uM) | TEAD-luciferase reporter activity (compound concentration: 10 uM)
1 | C[C@@H](c1nc(-c2ccc(C#N)cc2)cs1)[C@](O)(Cn1cncn1)c1cc(F)ccc1F [Isavuconazole] | inactive: -0.345 | inactive: -1.96 | inactive: -0.974
2 | N=C(N)NCCC[C@H](N)C(=O)NCC(=O)N[C@@H](CC(=O)O)C(=O)O | inactive: -1.45 | inactive: 0.0015 | inactive: -0.152
3 | CCCCc1cc(C(=O)OC)cc(=O)n1Cc1ccc(-c2ccccc2-c2nnn[nH]2)cc1F | inactive: -0.136 | inactive: -0.238 | inactive: 2.35
4 | C[N+](C)(C)CCCCCC[N+](C)(C)C | inactive: 1.47 | inactive: 0.0835 | inactive: 2.43
5 | CCOc1ncc(S(=O)(=O)N2CCN(CC)CC2)cc1-c1nc(O)c2nn(CCOC)c(CC)c2n1 | inactive: -0.412 | inactive: -0.111 | inactive: 0.113
6 | Nc1nc(N)c2nc(-c3cccc(O)c3)c(-c3cccc(O)c3)nc2n1 | inactive: -0.994 | inactive: -1.07 | inactive: 0.181
7 | OC(COc1cccc2[nH]ccc12)CN1CCC(COc2ccccc2)CC1 (stereo not drawn) | inactive: -0.991 | inactive: 0.458 | inactive: -0.69
8 | CC1CC(OC(=O)c2ccccc2O)CC(C)(C)C1 (stereo not drawn) | inactive: -1.97 | inactive: 0.402 | inactive: -1.46
9 | COc1cc(C(=O)NC2CCCNC2)cc(OC)c1OC (stereo not drawn) [troxipide] |  | inactive: 4.95 | 
10 | COc1cc(C(=O)NC2CCCNC2)cc(OC)c1OC (stereo not drawn) | inactive: -2.12 |  | inactive: 0.843
11 | S=P(N1CC1)(N1CC1)N1CC1 | inactive: 1.98 | inactive: -1.3 | inactive: -1.22
12 | O=C(O)/C=C/c1ccc(-c2nc3c([nH]2)c(=O)n(CC2CCCCC2)c(=O)n3CC2CCCCC2)cc1 | inactive: 2.36 |  | inactive: 3
13 | O=C(O)/C=C/c1ccc(-c2nc3c([nH]2)c(=O)n(CC2CCCCC2)c(=O)n3CC2CCCCC2)cc1 [Pharmaprojects No. 4934] |  | inactive: -0.764 | 
14 | CSCC[C@@H]1NC(=O)[C@H](CC(C)C)NC(=O)[C@H]2CNC(=O)C[C@@H](NC1=O)C(=O)N[C@H](Cc1c[nH]c3ccccc13)C(=O)N[C@@H](Cc1ccccc1)C(=O)N2 | inactive: -0.877 | inactive: -0.82 | inactive: 0.326
15 | COc1ccc(OC[C@H]2CN(C)CC[C@@H]2c2ccccc2)cc1 | inactive: -0.559 | inactive: -0.0392 | inactive: -1.7
16 | CCCCc1nnc(S)n1-c1ccccc1 | inactive: 1.86 | inactive: -0.741 | active: 6.47
17 | Cc1cc(CC(C)CC(C)(C)C)n(O)c(=O)c1 (stereo not drawn) | inactive: 0.0967 | inactive: -0.885 | inactive: -0.952
18 | Cc1ccsc1C(=CCCN1CCC[C@@H](C(=O)O)C1)c1sccc1C | inactive: -2.66 |  | inactive: 2.8
19 | Cc1ccsc1C(=CCCN1CCC[C@@H](C(=O)O)C1)c1sccc1C [tiagabine] |  | inactive: -1.79 | 
20 | CCCCCOc1cccc(NC(=O)O[C@H]2CCCC[C@@H]2N2CCCC2)c1 [trapencaine] | inactive: -0.0544 | inactive: -0.106 | inactive: 1.02

Row | Compound | TEAD-luciferase reporter activity (compound concentration: 200 nM) | TEAD-luciferase reporter activity (compound concentration: 2 uM) | TEAD-luciferase reporter activity (compound concentration: 10 uM)
21 | CC1(C)CC1(C)C [1,1,2,2-Tetramethylcyclopropane] | inactive: 1.13 | inactive: -1.53 | inactive: -1.47
22 | O=C(O)C1(CN2CCC(COc3noc4cccc(OCC(F)(F)F)c34)CC2)CCOCC1 | inactive: -0.968 | inactive: -0.0731 | inactive: 0.858
23 | COc1cc(-n2cnc3cc(-c4ccc(Cl)cc4)sc3c2=O)ccc1N1CC[C@@H](O)C1 | inactive: -0.728 | inactive: -0.757 | inactive: 1.1
24 | CN(C)c1ccccc1CS(=O)c1nc2ccccc2[nH]1 (stereo not drawn) | inactive: -0.797 | inactive: -1.24 | inactive: -0.382
25 | COc1ccc(/C=C/CCCCOc2ccc3c(=O)c4cc(C(=O)O)ccc4oc3c2CCC(=O)O)cc1 | inactive: -1.01 | inactive: 1.17 | inactive: -0.447
26 | COc1cc(C(C)C)c(Oc2cnc(N)nc2N)cc1S(N)(=O)=O | inactive: 3.64 | inactive: -1.9 | inactive: -0.116
27 | CN1CCC(=C(c2ccccc2)c2ccccc2)C1 | inactive: -0.173 | inactive: -1.51 | inactive: 2.88
28 | CCCOc1ccccc1-c1nc(O)c2nn[nH]c2n1 [zaprinast] | inactive: 2.33 | inactive: -0.694 | inactive: 0.664
29 | CCCCCCCCCCC(C)(C)C(=O)Nc1c(OC)cc(OC)cc1OC | inactive: -2.91 | inactive: -0.677 | inactive: 3.43
30 | O=P(O)(O)C(NC1CCCCCC1)P(=O)(O)O [incadronate disodium] | inactive: -0.581 | inactive: -0.557 | inactive: 0.281
31 | Cc1ccc(S(=O)(=O)CC(CC#Cc2ccc(Cl)cc2)C(=O)O)cc1 (stereo not drawn) | inactive: -0.758 | inactive: -0.828 | inactive: -0.459
32 | COCCOc1ccc(OCC(O)CNCCOc2ccc(C(N)=O)c(O)c2)cc1 (stereo not drawn) | inactive: -0.567 | inactive: -0.973 | inactive: -0.67
33 | CCCCOc1c(OCCCC)c(=O)c1=O | inactive: 4.44 |  | inactive: 0.481
34 | CCCCOc1c(OCCCC)c(=O)c1=O [squaric acid dibutyl ester, Squarex] |  | inactive: -0.261 | 
35 | Cc1ccc(CCC(=O)N[C@H](CO)Cc2ccc(O)cc2)cc1 | inactive: -0.416 | inactive: 2.38 | inactive: -0.041
36 | CCN(CC)CC(C)(C)COC(=O)C(CO)c1ccccc1 (stereo not drawn) | inactive: -0.867 | inactive: 0.406 | inactive: -0.736
37 | N[C@@]1(C(=O)O)CC[C@H]2[C@H](C(=O)O)[C@H]21 [Eglumetad hydrate] | inactive: -0.922 | inactive: -0.939 | inactive: 0.551
38 | COc1cc(CN2CCN(CC(=O)O)CC2)cc(OC)c1OC | inactive: 3.06 | inactive: -0.856 | inactive: 1.86
39 | CC(C)(N)C(=O)N[C@@H](Cc1c[nH]cn1)C(=O)N[C@H](Cc1ccc2ccccc2c1)C(=O)N[C@H](Cc1ccccc1)C(=O)N[C@@H](CCCCN)C(N)=O [ipamorelin] |  | inactive: 0.43 | 
40 | CC(C)(N)C(=O)N[C@@H](Cc1c[nH]cn1)C(=O)N[C@H](Cc1ccc2ccccc2c1)C(=O)N[C@H](Cc1ccccc1)C(=O)N[C@@H](CCCCN)C(N)=O [Ipamorelin] | inactive: 0.0662 | inactive: -0.438 | inactive: 0.337

Row | Compound | TEAD-luciferase reporter activity (compound concentration: 200 nM) | TEAD-luciferase reporter activity (compound concentration: 2 uM) | TEAD-luciferase reporter activity (compound concentration: 10 uM)
41 | CCOCCn1nc(C(=O)O)c2nc(N(C)CC)nc(Nc3cc(C)ccn3)c21 | inactive: -1.29 | inactive: 0.582 | inactive: -1.41
42 | CCCNC(=O)c1nnc2c(-c3cc(OC)ccc3OC)cccc2c1N | inactive: 0.665 | inactive: -0.91 | inactive: 1.16
43 | NC(=O)c1ccccc1NC(=O)CCN1CCN(c2nsc3ccccc23)CC1 | inactive: -1.33 | inactive: -1.17 | inactive: -1.35
44 | Cc1ccc(S(=O)(=O)NC(=O)N2N=CCC2C)cc1 (stereo not drawn) | inactive: -0.84 | inactive: -1.4 | inactive: 1.26
45 | CCCC/N=C(/NCC)NC(=N)N | inactive: 0.278 | inactive: 0.298 | inactive: -0.735
46 | COC1=C(OC)C(=O)C(CCCCCCCCCC[P+](c2ccccc2)(c2ccccc2)c2ccccc2)=C(C)C1=O [mitoqui    mesylate] |  | inactive: 0.138 | 
47 | COC1=C(OC)C(=O)C(CCCCCCCCCC[P+](c2ccccc2)(c2ccccc2)c2ccccc2)=C(C)C1=O [mitoqui mesylate] | inactive: -1.42 |  | 
48 | COC1=C(OC)C(=O)C(CCCCCCCCCC[P+](c2ccccc2)(c2ccccc2)c2ccccc2)=C(C)C1=O [mitoqui   mesylate] |  |  | inactive: -1.91
49 | NC(=O)C1CC2(NC(=O)NC2=O)c2cc(F)ccc2O1 (stereo not drawn) [Fidarestat] | inactive: -0.343 | inactive: 1.17 | inactive: 1.32
50 | CN(C)[C@@H](CCOc1cccc2ccccc12)c1ccccc1 [dapoxetine] | inactive: -0.182 | inactive: -0.743 | inactive: 0.467
51 | c1ccc(OCC2=NNc3ccncc3N2)cc1 [oxifungin] | inactive: -2.11 | inactive: 0.862 | inactive: -0.406
52 | O=C(Nc1ccc(Cl)cc1)Nc1ccc(Cl)c(Cl)c1 | inactive: 0.101 | inactive: 0.808 | inactive: 1.41
53 | CC(C)(C)c1ccc(C2=NC3(O)c4ccccc4CC3S2)cc1 (stereo not drawn) | inactive: -2.23 | inactive: -2.53 | inactive: -0.0338
54 | CN(C)CCSc1nc2ccccc2cc1-c1ccccc1 | inactive: 0.346 | inactive: -0.735 | inactive: 1.03
55 | CCN1CCCCC12Cc1ccccc1CN(C(=O)C(C)C)C2 (stereo not drawn) | inactive: -2.69 |  | inactive: -0.479
56 | O=C(NCCCOc1cccc(CN2CCCCC2)c1)C12C3C4C5C3C1C(Br)(C42)C51OCCO1 (stereo not drawn) | inactive: 1.24 |  | inactive: 2.75
57 | O=C(NCCCOc1cccc(CN2CCCCC2)c1)C12C3C4C5C3C1C(Br)(C42)C51OCCO1 (stereo not drawn) [analog of SWR 104SA] |  | inactive: -0.114 | 
58 | COCCCOc1cc(C[C@@H](CC(N)[C@@H](O)C[C@H](C(=O)NCC(C)(C)C(N)=O)C(C)C)C(C)C)ccc1OC (stereo partly drawn) | inactive: -1.43 | inactive: 0.26 | active: 12
59 | CN1CCN(c2c(F)cc3c(=O)c(C(=O)O)cn4c3c2OCN4C)CC1 [Marbofloxacin] | inactive: -1.66 | inactive: -0.0957 | inactive: 0.665

Record cards, from the list above. Order of values: TEAD-luciferase reporter activity (compound concentration: 200 nM)	TEAD-luciferase reporter activity (compound concentration: 2 uM)	TEAD-luciferase reporter activity (compound concentration: 10 uM)
CCCNC(=O)c1nnc2c(-c3cc(OC)ccc3OC)cccc2c1N as listed: inactive: 0.665	inactive: -0.91	inactive: 1.16
CN(C)[C@@H](CCOc1cccc2ccccc12)c1ccccc1 [dapoxetine] as listed: inactive: -0.182	inactive: -0.743	inactive: 0.467
NC(=O)c1ccccc1NC(=O)CCN1CCN(c2nsc3ccccc23)CC1 as listed: inactive: -1.33	inactive: -1.17	inactive: -1.35
CC(C)(C)c1ccc(C2=NC3(O)c4ccccc4CC3S2)cc1 (stereo not drawn) as listed: inactive: -2.23	inactive: -2.53	inactive: -0.0338

Reference: the supplement of paper PMC10735217
